Test results published in patent US20160136138A1, “DRUG FOR TREATMENT OF NONALCOHOLIC FATTY LIVER DISEASE” (KOWA COMPANY, LTD., priority 2013, published 2016).
For at least one compound, name, drawing or mass did not settle the structure.

System: KK-A^y mice fed with an MCD diet
Experiment: NASH model using KK-A^y mice fed with methionine-choline-deficient diet
Assay type: in vivo
Conditions: bezafibrate 60 mg/kg mixed in MCD diet (0.06%), 16 weeks; scale 0 to 3
Procedure: Effects on experimental animals, KK-A^y mice fed with a methionine-choline-deficient diet (MCD diet), which are known to develop fatty liver, a characteristic symptom of NASH (Nakano S. et al., Hepatol Res., 38(10), 1026-39, 2008) were examined.
As in Example 1, this experiment was conducted using (R)-2-[3-[[N-(benzoxazol-2-yl)-N-3-(4-methoxyphenoxy)propyl ]aminomethyl]phenoxy]butyric acid (Compound A), which is disclosed as Example 85 in Patent Document 1 listed above.
Male KK-A^y mice (KK-A^y/TaJc1, CLEA Japan, Inc.) were used in the experiment. Beginning at around 12 weeks of age, the mice were freely fed with an MCD diet for 16 weeks to develop NASH. • 2) Grouping:
The mice were divided into a normal diet group, a control group (fed with an MCD diet), a Compound A 0.25 mg/kg administration group, and a bezafibrate 60 mg/kg administration group in such a way that there was no difference in weight between the groups. • 3) Drug administration:
The doses were mixed in the feed. The control group was fed with an MCD diet containing no drug. […]
After the administration was completed, the livers were removed from the mice under pentobarbital sodium (50 mg/kg) anesthesia. […] Depending on the grade, the fatty liver was scored on a scale of 0 to 3 based on the following criteria. […]

CC(C)(Oc1ccc(CCNC(=O)c2ccc(Cl)cc2)cc1)C(=O)O [bezafibrate, reference compound]
fat deposition (steatosis score): fat deposition was suppressed to nearly the same extent as in the normal diet group
